Data as given in PubChem BioAssay AID540275 (National Center for Advancing Translational Sciences (NCATS), 2011).
Where “and” joins values, the source holds several entries; their conditions need not be identical. Equal entries are not always repeated. Among all 320,000 compounds or so, about 620 (0.19%) were called active. The inconclusive results got no clear call from the source; some entries with a clear call stand among them for comparison. No stated cut-off is given here; in the data, active means activation above about 80%; inconclusive means between about 30% and that limit; inactive means weaker than that.

The chains behind the UniProt entries cited, without tags or fusion partners.
UniProt Q8NER1, whole entry, looked up: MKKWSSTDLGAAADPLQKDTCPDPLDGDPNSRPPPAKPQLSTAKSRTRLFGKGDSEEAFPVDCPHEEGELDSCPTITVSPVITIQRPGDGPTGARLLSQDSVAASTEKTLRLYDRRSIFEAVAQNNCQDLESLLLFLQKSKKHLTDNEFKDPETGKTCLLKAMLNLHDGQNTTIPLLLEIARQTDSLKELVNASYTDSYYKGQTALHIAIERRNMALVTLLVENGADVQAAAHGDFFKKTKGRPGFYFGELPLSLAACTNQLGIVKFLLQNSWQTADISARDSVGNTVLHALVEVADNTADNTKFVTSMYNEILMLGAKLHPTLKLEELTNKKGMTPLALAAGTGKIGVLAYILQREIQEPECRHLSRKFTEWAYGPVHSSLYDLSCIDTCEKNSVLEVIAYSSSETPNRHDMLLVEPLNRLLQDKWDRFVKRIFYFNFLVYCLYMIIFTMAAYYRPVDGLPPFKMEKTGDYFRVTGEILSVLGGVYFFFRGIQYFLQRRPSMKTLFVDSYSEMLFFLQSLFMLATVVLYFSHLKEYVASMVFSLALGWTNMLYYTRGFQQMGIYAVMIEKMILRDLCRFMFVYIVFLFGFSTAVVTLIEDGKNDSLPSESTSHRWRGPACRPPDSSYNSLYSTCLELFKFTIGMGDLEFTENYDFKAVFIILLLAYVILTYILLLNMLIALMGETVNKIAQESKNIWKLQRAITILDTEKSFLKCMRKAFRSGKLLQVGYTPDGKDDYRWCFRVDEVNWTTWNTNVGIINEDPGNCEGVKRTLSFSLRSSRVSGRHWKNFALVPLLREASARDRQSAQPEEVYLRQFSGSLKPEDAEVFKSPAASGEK

target: Transient receptor potential cation channel subfamily V member 1 (Homo sapiens) (UniProt Q8NER1); test: HTS Assay for Compounds that Act as Agonists of the Vanilloid Receptor 1; conditions: TRPV1-expressing cells, Fluo-8 calcium influx, agonist mode; at 8.33 µM, hits give high values; further: 0% is about no effect
How it was run: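 Fluo-8 calcium influx in TRPV1-expressing cells, kinetic read (ex 480/em 520 nm). Compound added and read 3 min for agonist activity, followed by capsaicin at EC20 final and 2 min further read for enhancement.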

Row | SMILES | activation
1 | Cc1ccnc(NS(=O)(=O)c2ccc(Oc3ccccc3)cc2)c1 | inactive: 13.3%
2 | CCOC(=O)[C@H]1[C@H]2COc3ccccc3[C@@H]2N2C(=O)c3ccc(Cl)cc3NC(=O)[C@@]12C | inconclusive: 62.9%
3 | CCOc1ccc(OCC(O)CN2CCc3ccccc3C2)cc1 (stereo not given) | inactive: -1.83%
4 | CN(C)C(CNC(=O)c1cc2ccccc2oc1=O)c1ccccc1 (stereo not given) | inactive: 6.7%
5 | Cc1ccnc(NC(=O)c2ccc3c(c2)NC(=O)C(C)S3)c1 (stereo not given) | inconclusive: 53%
6 | CS(=O)(=O)Nc1ccc(C(=O)Nc2ccc3c(c2)OCCO3)cc1 | inconclusive: 45.3%
7 | CCOC(=O)c1c(C)nc2c(c1-c1ccc(OC)cc1)C(=O)CC(C)(C)C2 | inconclusive: 30.9%
8 | CN(C(=O)c1ccco1)c1nc(-c2ccc(F)cc2)cs1 | inconclusive: 72.9%
9 | CSc1nnc(CCNS(=O)(=O)c2ccc(Br)cc2)n1C | inactive: -3.22%
10 | CCOC(=O)c1[nH]c2ccc(OCC)cc2c1CCCN1C(=O)c2ccccc2C1=O | inconclusive: 35.6%
11 | COc1ccc(NC(=O)CCCC(=O)OCC(=O)c2cccc(OC)c2)cc1 | inconclusive: 38.4%
12 | O=c1[nH]c2cc3c(cc2cc1CN(Cc1cccnc1)Cc1nnnn1Cc1ccco1)OCCO3 | inactive: -0.0527%
13 | C=CCC(NCc1ccccc1)c1ccco1 (stereo not given) | inactive: 2.19%
14 | O=C1c2c(O)ccc(O)c2C(=O)c2c(NCCNCCO)ccc(NCCNCCO)c21 | inactive: -1.05%
15 | Fc1cccc(CNc2ncnc3ccc(-c4ccc5c(c4)OCO5)cc23)c1 | inconclusive: 44.8%
16 | CCCC(C(=O)NCC1CCCO1)N(Cc1ccco1)C(=O)CNS(=O)(=O)c1ccccc1 (stereo not given) | inactive: 6.71%
17 | O=C(CN1CCC(O)(c2ccc3c(c2)OCO3)CC1)N1CCOCC1 | inactive: -3.16%
18 | CCOC(=O)C(C)(C)N(Cc1cccc(C)c1)S(=O)(=O)c1cccc([N+](=O)[O-])c1 | inconclusive: 31.5%
19 | O=C(NCCCN1CCCC1=O)[C@H](CSCc1ccccc1)N1Cc2ccccc2C1=O | inactive: -0.726%
20 | COc1ccc(CN(Cc2ccccn2)C(=O)CN2C(=O)C(C)Oc3ccccc32)cc1 (stereo not given) | inconclusive: 34.3%
21 | CCC(=O)N1CCN(c2ccccc2NC(=O)COc2ccc(C(C)C)cc2)CC1 | inconclusive: 48.4%
22 | COC(=O)/C(=C\Nc1ccccc1)NC(=O)c1ccc(Cl)cc1Cl | inconclusive: 38.6%
23 | CC(C)(C)c1ccc(OCc2cnc(Cl)s2)cc1 | inconclusive: 34%

Row | SMILES | activation
24 | O=C(COc1ncnc2ccccc12)NCC1CCCO1 (stereo not given) | inactive: 3.36%
25 | COc1ccc(C)cc1NC(=O)CN1C(=O)CSc2ccc(S(=O)(=O)N3CCCC3)cc21 | inconclusive: 47%
26 | COc1ccc(Cc2[nH]n3c(=O)cc(C)nc3c2-c2ccccc2)cc1 | inactive: 1.62%
27 | COc1cccc(-c2nnc(NC(=O)c3ccccc3Br)o2)c1 | inactive: -1.74%
28 | CC1CCCCN1S(=O)(=O)c1ccc(C(=O)Nc2ccccc2-c2nc3ccccc3[nH]2)cc1 (stereo not given) | inactive: 5.71%
29 | N#CCCn1cc(C(=O)Nc2ccccc2Br)c(-c2cc3ccccc3o2)n1 | inconclusive: 43.4%
30 | C/C(N)=C(/C#N)C(=O)COC(=O)c1cc(-c2ccc(Br)cc2)nc2ccccc12 | inconclusive: 31.7%
31 | COc1cc2nc(SCc3c(C)noc3C)n(CCC3=CCCCC3)c(=O)c2cc1OC | inconclusive: 36.4%
32 | O=C(c1cc(-c2ccc(Cl)cc2)n(-c2cc(Cl)ccc2Cl)n1)N1CCOCC1 | inconclusive: 62.6%
33 | Cc1occc1C(=O)Nc1ccc2c(c1)CCC2 | inconclusive: 75.1%
34 | Cc1cccc(N2CCN(C(=O)c3cc(COc4ccc(F)c(F)c4)on3)CC2)n1 | inconclusive: 44.3%
35 | COC(=O)c1cccc(NC(=O)Nc2ccc(Cl)cc2Cl)c1 | inconclusive: 52.4%
36 | COc1ccc(CC(=O)N2CCC(c3ccccc3)C2)cc1 (stereo not given) | inconclusive: 36.5%
37 | CCOC(=O)c1ccccc1OCc1cc(/C=N/NC(=O)c2ccncc2)ccc1OC | inconclusive: 40.4%
38 | O=S(=O)(Nc1cccc2cccnc12)c1ccccc1 | inactive: -2.18% and inactive: 18.9%
39 | COCCNC(=S)N1CCN(c2nc(-c3ccc(F)cc3)cs2)CC1 | inconclusive: 36.2%
40 | Cc1oc(S(=O)(=O)N2CCCCC2)cc1NC(=O)Nc1ccccc1 | inconclusive: 43.9%
41 | O=C(Nc1nc2ccc(Cl)cc2s1)c1ccc(Br)o1 | inconclusive: 60.2%
42 | CCCCn1c(N)c(N(CC)C(=O)C2CCCC2)c(=O)[nH]c1=O | inactive: 0.133%
43 | COc1ccccc1NC(=O)COC(=O)C12CC3CC(CC(Cl)(C3)C1)C2 | inconclusive: 41.4%
44 | Cc1ccc(NC2CCCN(C(=O)CCC3(C)CC3)C2)cc1C (stereo not given) | inconclusive: 62.1%
45 | Cc1ccc(-c2nc3cc(NC(=O)C(C)C)ccc3o2)cc1 | inactive: 0.709%
46 | O=C(/C=C/c1ccccc1Cl)NCc1cccs1 | inconclusive: 48.3%

Looked up above:
Under activation, Cc1cccc(N2CCN(C(=O)c3cc(COc4ccc(F)c(F)c4)on3)CC2)n1 has the entry inconclusive: 44.3%
Under activation, Cc1ccc(NC2CCCN(C(=O)CCC3(C)CC3)C2)cc1C (stereo not given) has the entry inconclusive: 62.1%
Under activation, O=C(COc1ncnc2ccccc12)NCC1CCCO1 (stereo not given) has the entry inactive: 3.36%
Under activation, N#CCCn1cc(C(=O)Nc2ccccc2Br)c(-c2cc3ccccc3o2)n1 has the entry inconclusive: 43.4%
Under activation, COc1ccc(CC(=O)N2CCC(c3ccccc3)C2)cc1 (stereo not given) has the entry inconclusive: 36.5%
Under activation, COc1ccc(C)cc1NC(=O)CN1C(=O)CSc2ccc(S(=O)(=O)N3CCCC3)cc21 has the entry inconclusive: 47%

Later entries.

Row | SMILES | activation
47 | O=C(CCSCc1cccc(F)c1)NCc1ccc(F)cc1 | inconclusive: 71.4%
48 | Cc1cc(C)n2nc(C)c(Br)c2n1 | inactive: 1.9%
49 | CCCCCCCCN=C1NC(=O)CS1 | inconclusive: 44.5%
50 | Cc1ccc(NC(=O)C2CCCN(C(=O)Nc3ccc(F)cc3)C2)cc1 (stereo not given) | inconclusive: 55.9%
51 | COc1ccccc1/C=C(/CC(=O)NCc1ccc(F)cc1)c1nc2ccccc2s1 | inconclusive: 43.7%
52 | CC(C)CC(=O)NC(=S)Nc1nc(-c2ccccc2)cs1 | inactive: 0.158%
53 | O=C(NCc1ccc2c(c1)OCO2)c1nc(S(=O)(=O)Cc2ccccc2F)ncc1Cl | inactive: 4.98%
54 | CCCCOc1ccccc1NC(=O)CC1Nc2ccccc2NC1=O (stereo not given) | inactive: -0.679%
55 | O=C1c2ccccc2OC2(C=Cc3ccccc3O2)N1Cc1ccccc1 (stereo not given) | inconclusive: 66.9%
56 | Cc1cc(NS(=O)(=O)c2cn(C)nc2C)no1 | inactive: 2.72%
57 | CC(=O)Nc1ccc(S(=O)(=O)N2CCC(C(=O)NCCc3c[nH]c4ccccc34)CC2)cc1 | inactive: -0.308%
58 | C/C(=N\NC(=O)COc1ccc(C(C)(C)C)cc1)c1ccccc1 | inactive: 11.3%
59 | CC(C)(C)c1nnc(NC(=O)c2ccc3c(c2)OCO3)s1 | inconclusive: 63.6%
60 | CC(C)C[C@H](NC(=O)c1[nH]cnc1C(=O)Nc1ccc(CNC(=O)OC(C)(C)C)cc1)C(=O)OC(C)(C)C | inconclusive: 33%
61 | COc1ccccc1-n1c(SCC(=O)N2CCOCC2)nc2ccccc2c1=O | inconclusive: 42.5%
62 | O=C(NC1CCN(Cc2ccccc2Cl)CC1)c1ccccc1 | inconclusive: 65.3%
63 | Cc1nc(-c2ccc(C(=O)Nc3cccc(Br)c3)cc2)cs1 | inconclusive: 46.8%
64 | COCCCNC(=S)N1CCN(S(=O)(=O)c2ccc(OC)cc2)CC1 | inconclusive: 31.3%
65 | Cc1ccc(C)c2[nH]c(=O)c(CN(CCN3CCCC3)C(=O)Nc3cccc(Cl)c3)cc12 | inactive: -0.37%
66 | CSCc1c(C(=O)N2CCCc3ccccc32)oc2ccccc12 | inconclusive: 33.6%
67 | CCn1c(SCC(=O)Nc2ccc(C(C)=O)cc2)nc2ccccc21 | inconclusive: 34.1%
68 | NC(=O)/C=C\c1cn(-c2ccccc2)nc1-c1ccc2c(c1)OCCO2 | inconclusive: 62.3%
69 | Cc1ccc(O)c(C(=O)c2cc(C#N)c(=O)n(-c3nccs3)c2)c1 | inactive: -0.685%

Row | SMILES | activation
70 | CC(=O)c1cccc(NC(=S)NCCc2ccc(Cl)cc2)c1 | active: 85.2%
71 | COc1cccc(C(=O)N(Cc2ccccc2)Cc2cc3cc4c(cc3[nH]c2=O)OCCO4)c1 | inconclusive: 45.2%
72 | Cc1nc(SCC(=O)N2c3ccccc3Sc3ccccc32)n[nH]1 | inactive: 3.24%
73 | O=C(CCc1c[nH]c2ccccc12)NCCc1ccccc1 | inconclusive: 30.6%
74 | O=C(N/N=C/c1cccs1)c1cccc2cc[nH]c12 | inconclusive: 68.9%
75 | O=C(N/N=C/c1ccc(-c2ccccc2Cl)o1)c1ccccc1 | inconclusive: 30.5%
76 | Cc1ccc(NC(=O)COC(=O)C2(C)CC2(Cl)Cl)cc1S(=O)(=O)N1CCOCC1 (stereo not given) | inconclusive: 39.7%
77 | c1cncc(-c2nc(N3CCCCCC3)c3ccccc3n2)c1 | inconclusive: 52.1%
78 | O=S(=O)(c1cccs1)N1CCN(CC(O)COc2cccc(Br)c2)CC1 (stereo not given) | inactive: -1.74%
79 | COc1ccccc1CNC(=O)c1ccccc1C(=O)NC(CC(C)C)C(=O)NCc1ccccc1OC (stereo not given) | inactive: 1.62%
80 | CCCn1ncc2c(Nc3ccc(C)c(C)c3)ncnc21 | inconclusive: 56%
81 | Clc1ccc(SCc2cn3ccsc3n2)cc1 | inconclusive: 41.4%
82 | COc1ccc2nc(SCCOC(=O)Nc3ccc(Cl)cc3)nc(C)c2c1 | inactive: -4.48%
83 | Cc1c(C(=O)OCc2ccccc2)nnn1-c1nonc1N | inconclusive: 33.1%
84 | Cc1ccc(-c2ccc(C(=O)NCc3ccc(Cl)cc3)o2)c2ccccc12 | inconclusive: 55.3%
85 | CC(C)CC(=O)NC(Nc1ccccc1F)C(Cl)(Cl)Cl (stereo not given) | inconclusive: 35.7%
86 | Cc1ccc(C(=O)N/N=C\c2cc(Br)c(Br)o2)cn1 | inconclusive: 36%
87 | N#Cc1ccc(C(=O)NC23CC4CC(CC(C4)C2)C3)cc1 | inconclusive: 42%
88 | Cc1nc(NC(=S)NC(=O)COc2ccccc2Cl)ccc1Br | inactive: 4.93%
89 | CC(C)CCN(Cc1ccco1)S(=O)(=O)c1ccc(-c2ccc(=O)[nH]n2)s1 | inconclusive: 34.3%
90 | CCCC1=NN(C(=O)C(=O)Nc2ccc(Br)cc2)C(O)(C(F)(F)F)C1 (stereo not given) | inactive: 1.04%
